Source: PubChem BioAssay AID2685 (National Center for Advancing Translational Sciences (NCATS), 2010)
This is one part of the list. The main result of the screen is listed elsewhere. These columns were measured beside it and carry no call. Most of these compounds were active or inconclusive in the main read-out, so they are no random draw. Words in brackets tell the shape of the fitted curve; partial curves, single points and poor fits give uncertain potencies.

Assay: qHTS Assay for Lipid Storage Modulators in Drosophila S3 Cells;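 on cell number change: cells counted by Cell Tracker Red CMTPX staining in the red channel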
Settings: BODIPY lipid droplet fluorescence, 18-24 h; for cell number change: measured here: cell count max response, cells fed with added oleic acid
How it was run: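 Drosophila S3 cells got compounds at several concentrations plus oleic acid (400 uM solution). Laser-scanning cytometry with 488 nm excitation read lipid droplets at 500-530 nm and cells at 575-640 nm. Percent activity was relative to 20 uM Triacsin C.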

[1] = measured here: lipid fluorescence (Fed channel) AC50, cells fed with added oleic acid
[2] = measured here: cell number channel AC50, cells fed with added oleic acid

Compound	cell number change	AC50 [1]	AC50 [2]
Cc1ccc(N2C(=O)CC(Sc3ncn[nH]3)C2=O)cc1 (stereo unspecified)	18.4%	7.31 µM [rising, partial curve, poor fit]	
COC(=O)c1ccc2nccnc2c1	30%		18.4 µM [rising, single point]
COCCN1C(=O)C(=O)/C(=C(/O)c2ccc(S(=O)(=O)N3CCOCC3)cc2)C1c1ccc(O)cc1 (stereo unspecified)	-14.3%	0.13 µM [falling, full curve, poor fit]	
CCOC(=O)Cn1nnnc1C(C(C)C)N(Cc1cc2c(C)cc(C)cc2[nH]c1=O)C1CCCC1 (stereo unspecified)	-34.6%		29.1 µM [falling, single point]
Cc1nc(N)c(C#N)c(-c2cccnc2)c1-c1ccccc1	11.1%		
Oc1ccccc1-n1c(-c2ccccc2)ccc1-c1ccccc1		0.13 µM [falling, full curve, poor fit]	
O=S1(=O)N=C(N/N=C/C=C/c2ccccc2)c2ccccc21	-11.8%	20.6 µM [falling, partial curve, poor fit]	
COc1ccc(C(C(=O)NCc2ccccc2)N(C(=O)c2snc(C(N)=O)c2N)C2CCCC2)cc1 (stereo unspecified)	-19%		
CCOC(=O)c1cnc2ccc(OCC)cc2c1N(C)Cc1ccccc1	-27.4%	29.1 µM [falling, single point]	
COc1ccc(CCNC(=O)C2CCN(S(=O)(=O)c3ccc(C)cc3)CC2)cc1			0.326 µM [rising, full curve, poor fit]
Cc1cc(NS(=O)(=O)c2ccc(NC(=O)Nc3ccccc3)cc2)no1	1.25%	0.291 µM [falling, full curve, poor fit]	
COc1ccc(-n2nc(C(=O)Nc3ccc4c(c3)OCO4)c3c4ccccc4n(C)c3c2=O)cc1	223%	29.1 µM [rising, partial curve]	29.1 µM [rising, partial curve]
CCOC(=O)c1c(N)sc(=S)c2c1CCC2	-4.65%		0.731 µM [rising, single point]
COCCCNC(=S)NNC(=O)c1ccoc1C	22.6%	0.0058 µM [rising, full curve, poor fit]	
CCOC(=O)C1=C(c2ccccc2)N2CCS(=O)(=O)N=C2S1		3.66 µM [rising, partial curve]	2.59 µM [rising, partial curve]
CCc1ccc(NC(=O)C(=O)NNC(=O)c2ccc(OC)cc2)cc1	50.9%		32.6 µM [rising, partial curve, poor fit]
C=CCc1cc(C)ccc1OCCn1ccnc1	10.6%	2.06 µM [rising, partial curve]	

3 structures already listed, ordered by SMILES length, descending:
Compound	cell number change	AC50 [1]	AC50 [2]
COc1ccc(-n2nc(C(=O)Nc3ccc4c(c3)OCO4)c3c4ccccc4n(C)c3c2=O)cc1	223%	29.1 µM [rising, partial curve]	29.1 µM [rising, partial curve]
CCOC(=O)C1=C(c2ccccc2)N2CCS(=O)(=O)N=C2S1		3.66 µM [rising, partial curve]	2.59 µM [rising, partial curve]
Oc1ccccc1-n1c(-c2ccccc2)ccc1-c1ccccc1		0.13 µM [falling, full curve, poor fit]	
